Measured values reported in PubChem BioAssay AID1347076 (National Center for Advancing Translational Sciences (NCATS), 2019).
Where “and” joins values, the source holds several entries; their conditions need not be identical. Identical values can stand only once. About 13,000 (3.2%) of roughly 400,000 compounds were called active. The shares of active, inactive and inconclusive entries below differ from those in the screen. The call rests on the fitted dose curve; in most records, active means well fitted cell-killing curve with a large enough effect; inconclusive means small, poorly fitted or top-dose-only effect, or effect the other way; inactive means flat fitted curve, though single readings scatter. Where the call is inconclusive, the potency comes from a doubtful curve fit.

experiment: qHTS assay for MDR1-selective chemotherapeutics: Primary screen using the drug-selected MDR subline cells KB-V1; conditions: KB-V1 MDR cells viability, CellTiter-Glo, 72 h; activity change, negative = cytotoxicity: at 46.1 µM (top of the series); further: nearly all actives have a fitted effect of over 60% in size
Procedure, shortened: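 KB-V1 MDR subline cells in DMEM (phenol-red free, 10% FBS) exposed to compounds in qHTS concentration series for 72 h at 37 degrees C. Viability read by CellTiter-Glo luminescence; concentration-effect curves fitted after normalization and correction.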
On the % scale 0 is the no-effect control and ±100 the full control effect; potency means the concentration at half of the fitted maximal effect.

Compound	Potency	activity change, negative = cytotoxicity
COc1ccc(N2C(=O)CC(c3ccccc3)C2=O)cc1 (stereo not given)	inconclusive: 29.1 µM [rising, single point]	
CCCCN(C)CCNC(=O)c1ccc2c(=O)n(CCc3ccccc3)c(=O)[nH]c2c1	inactive	
CC(NC(=O)Cc1ccc(S(=O)(=O)N2CCOCC2)s1)c1ccc(Cl)cc1Cl (stereo not given)	inconclusive: 16.4 µM [cytotoxic, single point]	
Cc1ccc(S(=O)(=O)NC2=C(N3CCN(c4ccccc4F)CC3)C(=O)c3ccccc3C2=O)cc1	inconclusive: 25.9 µM [cytotoxic, partial curve, poor fit] and inconclusive: 16.4 µM [cytotoxic, partial curve, poor fit]	
O=C1CCN(Cc2ccc([N+](=O)[O-])cc2)CCN1[C@H](CO)Cc1ccccc1	inconclusive: 10.3 µM [cytotoxic, partial curve, poor fit]	
CNC(=S)N1N=C(c2ccc(C)cc2)CC1c1ccc(Br)cc1 (stereo not given)	active: 14.6 µM	
CN(C)CC1CCC/C(=C\c2ccc(OC(=O)/C=C/c3ccc(Cl)c(Cl)c3)cc2)C1=O (stereo not given)	inconclusive: 29.1 µM [cytotoxic, single point]	
CCOC(=O)c1sc(N(C)C(C)=O)nc1C	inconclusive: 29.1 µM [rising, partial curve, poor fit]	
O=C(Nc1ccc2c(c1)OCCO2)Nc1nnc(-c2ccncc2)s1	inactive	
CCOC(=O)C1CCCN(c2c(C(=O)c3ccccc3)cnc3ccc(OC)cc23)C1 (stereo not given)	inconclusive: 0.651 µM [rising, full curve, poor fit]	
COc1ccccc1C(=O)NCC(=O)N1CC=C(c2ccccc2)CC1	active: 16.4 µM	
CCn1cc(C(=O)N(C)CC(OC)OC)c(=O)c2cc(S(=O)(=O)N3CCOCC3)ccc21		inconclusive: -0.661%
CSc1nnc([C@@H](NC(=O)OC(C)(C)C)C(C)C)o1	inconclusive: 20.6 µM [cytotoxic, single point]	
CCCc1[nH]nc2c1C(c1ccsc1)C(C#N)=C(N)O2 (stereo not given)	inactive	
C=CCN1C(=O)c2ccc(C(=O)OCC(=O)Nc3ccccc3OC)cc2C1=O	inconclusive: 25.9 µM [rising, single point]	
Cc1ccc(S(=O)(=O)N2CCN(C(=O)COc3ccc(C)nc3[N+](=O)[O-])CC2)c(C)c1	inconclusive: 8.2 µM [cytotoxic, partial curve]	
CCNC(=S)N1CCn2c(nc3ccccc32)C1	inconclusive: 18.4 µM [cytotoxic, partial curve]	
CCCn1c(CN2CCN(C(=O)OCC)CC2)nc2cc(NC(=O)C(C)C)ccc21	inconclusive: 25.9 µM [cytotoxic, single point]	
CCC(=O)NC(c1cccs1)c1ccc2cccnc2c1O (stereo not given)	inconclusive: 29.1 µM [cytotoxic, single point]	
Cc1ccc(COc2cccc3c2CCN(Cc2ccc(F)cc2)C3=O)cc1	active: 5.8 µM	
O=C(COc1ccc(Cl)cc1[N+](=O)[O-])NC1CCCCC1	inconclusive: 29.1 µM [cytotoxic, single point]	
CC(C)C[C@H]1COc2cc(N3CCN(Cc4ccccc4F)CC3)ccc2S(=O)(=O)N1	inactive	
CCC(=O)Nc1ccc(Nc2nc(C)c([N+](=O)[O-])c(Nc3ccc(NC(=O)CC)cc3)n2)cc1	inconclusive: 25.9 µM [cytotoxic, single point]	
CN(C)S(=O)(=O)c1ccc(N2CCCC2)c(C(=O)NCC(=O)Nc2ccc(F)c(F)c2)c1	inconclusive: 23.1 µM [cytotoxic, single point]	

Compound	Potency	activity change, negative = cytotoxicity
C[C@H](CO)N1C[C@H](C)[C@@H](CN(C)C(=O)Nc2ccc(F)cc2)Oc2ncc(-c3ccc(F)cc3)cc2C1=O	inconclusive: 18.4 µM [rising, single point]	
O=C(Nc1ccc2oc(-c3cccc4c(Br)cccc34)nc2c1)c1ccc(F)cc1	inactive	
C[C@H]1CN([C@@H](C)CO)C(=O)c2cc(Br)cnc2O[C@@H]1CN(C)S(C)(=O)=O	inactive	
O=C(N/N=C/c1ccc2c(c1)OCO2)c1cc(-c2ccc(F)cc2)nc2ccccc12	active: 8.2 µM	
COc1ccccc1CNC(=O)c1ccc(Cl)c(NC2=NC3CS(=O)(=O)CC3S2)c1 (stereo not given)	inactive	
O=C(Nc1ccc(Cl)c(Cl)c1)c1ccc(Cl)c(Cl)c1	inactive	
COc1ccccc1CNC(=O)COC(=O)c1ccc(C(=O)c2ccccc2)cc1	inactive	
O=C(O)C(Cc1ccc(Cl)cc1)NS(=O)(=O)c1ccc(Cl)cc1 (stereo not given)	inactive	
Cc1ccc(C(=O)N/C(=C\c2cn(C)c3ccccc23)C(=O)NCCCN2CCOCC2)cc1	inconclusive: 29.1 µM [rising, single point]	
O=C(Nc1ccccc1N1CCCCC1)c1ccccc1F	inconclusive: 16.4 µM [cytotoxic, partial curve]	
COc1cccc(CNc2ccc3c(c2)CCC3)c1	inactive	
COc1ccccc1/C=C/C(=O)c1ccc(NC(C)=O)cc1	inactive	
Cc1oc(S(=O)(=O)N2CCCCC2)cc1NC(=O)Nc1ccc(F)cc1	inconclusive: 29.1 µM [cytotoxic, single point]	
Cc1ccc(NC(=S)Nc2cccc3cnccc23)c(C)c1	inconclusive: 18.4 µM [cytotoxic, single point]	
O=[N+]([O-])c1cc(S(=O)(=O)N2CCCCCC2)ccc1F	inactive	
COCCn1cnc2c1c(=O)n(CC(=O)OCC#N)c(=O)n2Cc1ccccc1	inconclusive: 23.1 µM [rising, single point]	
COc1cccc(NC(=O)C2C3C=CC4(O3)C2C(=O)N(CCCN2CCCCC2)C4C(=O)NC2CCCCC2)c1 (stereo not given)	inactive	
Cn1c(N)c(N=O)c(=O)n(C)c1=O	inconclusive: 0.411 µM [rising, full curve, poor fit]	
CCOc1ccc(-c2nnn(CC#N)n2)cc1OC	inactive	
CCCCCCCCCc1nc2sc3c(c2c(=O)n1NC(=O)c1ccc([N+](=O)[O-])cc1)CC(C)(C)OC3	inconclusive: 20.6 µM [cytotoxic, single point]	
COc1cccc(N2CC(O)=C(c3nc4ccccc4c(=O)[nH]3)C2=N)c1	inconclusive: 0.82 µM [cytotoxic, full curve, poor fit]	
C[C@H](CO)N1C[C@H](C)[C@@H](CN(C)S(C)(=O)=O)Oc2ccc(N(C)C)cc2C1=O	inconclusive: 29.1 µM [rising, single point]	
CCCOc1c(OC)cccc1C1CC(=O)Nc2cc3c(cc21)OCO3 (stereo not given)	active: 16.4 µM	
COc1cc(CN(C(=O)c2ccco2)c2ccc(C)cc2)ccc1O	active: 13 µM	

Compound	Potency	activity change, negative = cytotoxicity
COc1cc2c(cc1OC)C(C)N(C(=O)Nc1ccc(F)cc1)CC2 (stereo not given)	active: 11.6 µM	
CSc1ccccc1OCc1cc(C(=O)N(C)Cc2c(C)n[nH]c2C)no1	inconclusive: 29.1 µM [cytotoxic, single point]	
COc1ccc(-n2c(=S)[nH]c3cc(C(=O)N4CCN(c5ccccc5)CC4)ccc3c2=O)c(OC)c1	inconclusive: 0.116 µM [cytotoxic, full curve]	
CC(=O)Nc1ccc(S(=O)(=O)NC2CCSc3ccccc32)cc1 (stereo not given)	inactive	
CC(=O)c1c(C)nc(-c2ccc(OCC(=O)Nc3cccc(C)c3C)cc2)n1O	inactive	
CCCN(CC(=O)Nc1ccc(C)cc1Br)CC(=O)Nc1ccc(F)c(F)c1F	active: 8.2 µM	
COc1ccc(-c2cc(C(F)(F)F)nc(SCC(=O)Nc3sc4c(c3C#N)CCC4)n2)cc1	inconclusive: 2.06 µM [cytotoxic, partial curve, poor fit]	
COc1ccccc1NC(=S)N1CCN(C/C=C/c2ccccc2)CC1	inconclusive: 13 µM [cytotoxic, partial curve]	
CCOC(=O)c1c(C)n(C)c2ccc(OCC(O)CN3C(=O)c4ccccc4S3(=O)=O)cc12 (stereo not given)	inconclusive: 7.31 µM [cytotoxic, partial curve]	
COc1nc(Nc2cccc(C(F)(F)F)c2)nc(OC)n1	inconclusive: 3.66 µM [cytotoxic, full curve]	
CCOC(=O)N1CCN(C(=O)CCc2ccccc2)CC1	inactive	
Cc1ccccc1NC(=S)c1nc2ccccc2[nH]1	inconclusive: 29.1 µM [cytotoxic, single point]	
CC1CCCCN1C(=O)COc1ccc(NC(=O)c2ccco2)cc1 (stereo not given)	inconclusive: 20.6 µM [cytotoxic, partial curve, poor fit]	
CN1CCN(c2ncnc3c2ncn3[C@H]2CN(Cc3ccc(Cl)cc3)C[C@@H](CO)O2)CC1	inactive	
C/C(=N\NC(=O)Cn1c(C)nc2ccccc21)c1cccs1	active: 14.6 µM	
COC(=O)c1ccc(C23CC4(C2)[C@H](CN(CC2CCCCC2)[C@@H]4c2ccccc2)C3c2ccc(Cl)nc2)cc1 (stereo not given in full)	inactive	
COc1cc(C)ccc1S(=O)(=O)N1CCN(C23CC4CC(CC(C4)C2)C3)CC1	active: 13 µM	
O=S(=O)(c1ccc(Br)cc1)N1CCN=C1SCc1cccnc1	inconclusive: 29.1 µM [cytotoxic, single point]	
Cc1ccc2c(c1)C(=O)C(=O)N2CC1COc2ccccc2O1 (stereo not given)	active: 20.6 µM	
Cc1cc(C)n(C/C=C/Cn2nc(C)cc2C)n1	inconclusive: 29.1 µM [cytotoxic, single point]	
CCn1nc(C(=O)OC(C(=O)c2c[nH]c3ccccc23)c2ccccc2)c2ccccc2c1=O (stereo not given)	active: 11.6 µM	
CCc1cccc(C)c1NC(=O)CN(C)C1=NS(=O)(=O)c2ccccc21	inconclusive: 29.1 µM [rising, single point]	
